Experimental findings from PMC2065906 are described below.

Results are given in words; binding and its absence hold for the method and conditions named. Binding calls can cover weak binding; strength is not graded here. Sequences can lack the tags named with a protein.

This assay concerns the target T1, TRα1-GST fusion protein (thyroid hormone receptor α1 fused to GST) (UniProt P63059).
T1 sequence: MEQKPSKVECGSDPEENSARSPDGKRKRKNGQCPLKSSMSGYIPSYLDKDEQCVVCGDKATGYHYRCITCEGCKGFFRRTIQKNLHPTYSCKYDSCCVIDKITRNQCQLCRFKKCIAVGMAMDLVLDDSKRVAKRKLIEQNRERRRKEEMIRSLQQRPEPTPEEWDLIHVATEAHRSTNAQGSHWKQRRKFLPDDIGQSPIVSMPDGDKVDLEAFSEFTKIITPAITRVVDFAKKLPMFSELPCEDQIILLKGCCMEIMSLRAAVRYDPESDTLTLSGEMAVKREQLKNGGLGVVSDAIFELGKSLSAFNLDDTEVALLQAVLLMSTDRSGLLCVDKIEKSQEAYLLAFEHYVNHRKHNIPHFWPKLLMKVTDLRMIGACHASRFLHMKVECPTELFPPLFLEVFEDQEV
The assay can be described thus: pull-down; GST or TRα1-GST (2 µg) immobilised on glutathione-Sepharose beads, incubated with 2 µg DOR-His, with or without 1 µM T3; 10 mM Tris/HCl, 200 mM NaCl, EDTA 0.2%, pH 7.5, 1 h at 4°C; Western blot with anti-His and anti-GST; both purified. In general terms: Immunoblotting shows a protein as a band on a membrane.

As for “Full-length DOR with a histidine-tagged N-terminus (DOR-His), purified from E. coli”, the binding result is “binds”.
